PMC6669929
Results are given in words; binding and its absence hold for the method and conditions named. In cells and extracts the contact can be indirect. Some binding calls cover weakened binding; strength is not graded here. Tags and fused reporters may be left off the sequences shown.

Chains of the proteins cited; added tags and fusions are not shown. Residues count along the entry.
UniProt Q9EQY0, residues 21-977: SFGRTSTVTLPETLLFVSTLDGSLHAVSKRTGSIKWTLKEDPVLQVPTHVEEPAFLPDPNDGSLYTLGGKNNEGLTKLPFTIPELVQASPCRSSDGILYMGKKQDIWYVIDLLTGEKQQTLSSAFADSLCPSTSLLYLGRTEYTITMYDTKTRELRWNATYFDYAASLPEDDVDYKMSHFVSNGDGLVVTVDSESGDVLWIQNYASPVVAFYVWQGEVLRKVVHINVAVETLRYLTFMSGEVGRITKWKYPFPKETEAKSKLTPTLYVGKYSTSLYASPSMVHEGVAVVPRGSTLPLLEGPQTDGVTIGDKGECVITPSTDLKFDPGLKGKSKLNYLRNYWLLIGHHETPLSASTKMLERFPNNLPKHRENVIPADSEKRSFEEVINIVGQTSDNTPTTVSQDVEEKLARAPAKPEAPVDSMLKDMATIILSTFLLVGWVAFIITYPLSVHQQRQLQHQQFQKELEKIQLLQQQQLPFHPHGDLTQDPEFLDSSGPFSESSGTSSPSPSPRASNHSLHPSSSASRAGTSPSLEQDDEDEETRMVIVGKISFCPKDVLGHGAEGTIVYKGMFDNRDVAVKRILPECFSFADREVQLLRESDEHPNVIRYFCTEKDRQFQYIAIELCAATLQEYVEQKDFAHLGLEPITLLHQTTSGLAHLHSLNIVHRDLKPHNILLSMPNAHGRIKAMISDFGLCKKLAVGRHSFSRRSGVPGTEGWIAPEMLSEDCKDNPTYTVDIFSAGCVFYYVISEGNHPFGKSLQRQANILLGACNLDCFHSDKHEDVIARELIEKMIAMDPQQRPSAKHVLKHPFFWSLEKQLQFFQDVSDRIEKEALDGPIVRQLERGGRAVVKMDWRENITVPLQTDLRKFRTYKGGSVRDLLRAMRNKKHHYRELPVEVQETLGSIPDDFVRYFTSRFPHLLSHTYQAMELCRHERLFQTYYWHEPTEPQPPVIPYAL

Target: T1, GST-fused MITOL N-ter (1–90 aa of MITOL) (UniProt Q9NX47)
T1 sequence: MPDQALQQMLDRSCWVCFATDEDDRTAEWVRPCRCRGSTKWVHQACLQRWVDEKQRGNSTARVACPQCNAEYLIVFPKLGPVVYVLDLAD
Assay: pull-down; purified GST-fusion fragments of MITOL or IRE1α on glutathione magnetic agarose beads incubated with lysates from MEFs, immunoblot (Fig 4C, D); only the target purified

- binding: binds
Substance: IRE1α, endogenous in MEFs and in mouse spinal cord (from UniProt Q9EQY0 21-977)
